# Data: the supplement of paper PMC8728848
# The other results are listed elsewhere or left out.
# B1: EUL D1A (Oryza sativa) (protein)
# chain: MFGFGHHHNQAPAAPSDPNQIFKIFCRANENYCLTVRDSAVVLAPVNPKDEHQHWFKDMRFSTKVKDGEGMPAFALVNKATGLAVKHSLGQSHPVKLVPFNPEYEDASVLWTESKDVGKGFRCIRMVNNTRLNLDAFHGDKDHGGVRDGTTVVLWEWCKGDNQSWKILPWGPEAHSSSPGAATACTIGGVPVHTVRVFSAAGEDYCLTVRNGTACLAPKNPRDDYQHWIKDMRHSNKIRDEEGYPAFALVNKVTGEAIKHSTGQGHPVKLVPYNPEYQDESVLWTESKDVGKGFRCIRMVNNIYLNFDAFHGDKDHGGIHDGTEIVLWKWCEGDNQRWKILPWILEQKLISEEDLNSAVDHHHHHH
# What was measured:
# Assay in all cases: glycan array binding signal (z-score within array); higher = stronger binding
# Conditions in all cases: glycan notation: IUPAC condensed, linker removed
# [1] = biological target: Man(a1-2)Man(a1-3)[Man(a1-2)Man(a1-6)]Man(a1-6)[Man(a1-2)Man(a1-2)Man(a1-3)]Man
# Method in brief: (§1)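 Arrays were curated from the Consortium for Functional Glycomics database, 3228 in total, and kept only where the protein sequence was available. Binding is expressed as a within-array Z-score. This score was averaged across arrays of the same protein sequence at different concentrations or buffers and across linkers, and negative values can be read as non-binding.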
# [2] = biological target: Man(a1-2)Man(a1-3)[Man(a1-2)Man(a1-6)]Man(a1-6)[Man(a1-2)Man(a1-2)Man(a1-3)]Man(b1-4)GlcNAc(b1-4)GlcNAc
# Method in brief: as §1
# [3] = biological target: Man(a1-2)Man(a1-3)[Man(a1-6)]Man(a1-6)[Man(a1-2)Man(a1-3)]Man(b1-4)GlcNAc(b1-4)GlcNAc
# Method in brief: as §1
# [4] = biological target: Man(a1-2)Man(a1-6)[Man(a1-3)]Man(a1-6)[Man(a1-2)Man(a1-2)Man(a1-3)]Man
# Method in brief: as §1
# [5] = biological target: Man(a1-2)Man(a1-6)[Man(a1-3)]Man(a1-6)[Man(a1-2)Man(a1-2)Man(a1-3)]Man(b1-4)GlcNAc(b1-4)GlcNAc
# Method in brief: as §1
# Man(a1-3)[Man(a1-6)]Man = biological target: Man(a1-3)[Man(a1-6)]Man
# Method in brief: as §1
# [6] = biological target: Man(a1-3)[Man(a1-6)]Man(a1-6)[Man(a1-2)Man(a1-3)]Man(b1-4)GlcNAc(b1-4)GlcNAc
# Method in brief: as §1
# [7] = biological target: Man(a1-3)[Man(a1-6)]Man(a1-6)[Man(a1-3)]Man
# Method in brief: as §1
# [8] = biological target: Man(a1-3)[Man(a1-6)]Man(a1-6)[Man(a1-3)]Man(b1-4)GlcNAc(b1-4)GlcNAc
# Method in brief: as §1
# [9] = biological target: Man(a1-3)[Man(a1-6)]Man(b1-4)GlcNAc(b1-4)GlcNAc
# Method in brief: as §1
# [10] = biological target: Man(a1-3)[Man(a1-6)]Man(b1-4)GlcNAc(b1-4)[Fuc(a1-6)]GlcNAc
# Method in brief: as §1
# Man(a1-6)Man = biological target: Man(a1-6)Man
# Method in brief: as §1
# Man(b1-4)GlcNAc = biological target: Man(b1-4)GlcNAc
# Method in brief: as §1
# MurNAc(b1-4)GlcNAc = biological target: MurNAc(b1-4)GlcNAc
# Method in brief: as §1
# Neu5Ac(a2-3)Gal = biological target: Neu5Ac(a2-3)Gal
# Method in brief: as §1
# [11] = biological target: Neu5Ac(a2-3)Gal(b1-3)GalNAc
# Method in brief: as §1
# [12] = biological target: Neu5Ac(a2-3)Gal(b1-3)GalNAc(b1-3)Gal(a1-4)Gal(b1-4)Glc
# Method in brief: as §1
# [13] = biological target: Neu5Ac(a2-3)Gal(b1-3)GalNAc(b1-4)Gal(b1-4)Glc
# Method in brief: as §1
# [14] = biological target: Neu5Ac(a2-3)Gal(b1-3)GalNAc(b1-4)[Neu5Ac(a2-3)]Gal(b1-4)Glc
# Method in brief: as §1
# [15] = biological target: Neu5Ac(a2-3)Gal(b1-3)GalNAc(b1-4)[Neu5Ac(a2-8)Neu5Ac(a2-3)]Gal(b1-4)Glc
# Method in brief: as §1
# [16] = biological target: Neu5Ac(a2-3)Gal(b1-3)GalNAc6S
# Method in brief: as §1
# [17] = biological target: Neu5Ac(a2-3)Gal(b1-3)GlcNAc
# Method in brief: as §1
# [18] = biological target: Neu5Ac(a2-3)Gal(b1-3)GlcNAc(b1-2)Man
# Method in brief: as §1
# [19] = biological target: Neu5Ac(a2-3)Gal(b1-3)GlcNAc(b1-2)Man(a1-3)[GlcNAc(b1-4)][Neu5Ac(a2-3)Gal(b1-3)GlcNAc(b1-2)Man(a1-6)]Man(b1-4)GlcNAc(b1-4)GlcNAc
# Method in brief: as §1
# [20] = biological target: Neu5Ac(a2-3)Gal(b1-3)GlcNAc(b1-2)Man(a1-3)[Neu5Ac(a2-3)Gal(b1-3)GlcNAc(b1-2)Man(a1-6)]Man(b1-4)GlcNAc(b1-4)GlcNAc
# Method in brief: as §1
# [21] = biological target: Neu5Ac(a2-3)Gal(b1-3)GlcNAc(b1-2)[Neu5Ac(a2-3)Gal(b1-3)GlcNAc(b1-4)]Man(a1-6)[Neu5Ac(a2-3)Gal(b1-3)GlcNAc(b1-2)Man(a1-3)]Man(b1-4)GlcNAc(b1-4)GlcNAc
# Method in brief: as §1
# [22] = biological target: Neu5Ac(a2-3)Gal(b1-3)GlcNAc(b1-3)Gal(b1-3)GlcNAc
# Method in brief: as §1
# [23] = biological target: Neu5Ac(a2-3)Gal(b1-3)GlcNAc(b1-3)Gal(b1-4)GlcNAc
# Method in brief: as §1
# [24] = biological target: Neu5Ac(a2-3)Gal(b1-3)GlcNAc(b1-3)GalNAc
# Method in brief: as §1
# [25] = biological target: Neu5Ac(a2-3)Gal(b1-3)GlcNAc(b1-6)GalNAc
# Method in brief: as §1
# [26] = biological target: Neu5Ac(a2-3)Gal(b1-3)GlcNAc6S
# Method in brief: as §1
# [27] = biological target: Neu5Ac(a2-3)Gal(b1-3)[Fuc(a1-4)]GlcNAc
# Method in brief: as §1
# [28] = biological target: Neu5Ac(a2-3)Gal(b1-3)[Fuc(a1-4)]GlcNAc(b1-3)Gal(b1-3)[Fuc(a1-4)]GlcNAc
# Method in brief: as §1
# [29] = biological target: Neu5Ac(a2-3)Gal(b1-3)[Fuc(a1-4)]GlcNAc(b1-3)Gal(b1-4)[Fuc(a1-3)]GlcNAc
# Method in brief: as §1
# [30] = biological target: Neu5Ac(a2-3)Gal(b1-3)[GlcNAc(b1-6)]GalNAc
# Method in brief: as §1
# [31] = biological target: Neu5Ac(a2-3)Gal(b1-3)[Neu5Ac(a2-6)]GalNAc
# Method in brief: as §1
# [32] = biological target: Neu5Ac(a2-3)Gal(b1-3)[Neu5Ac(a2-6)]GlcNAc(b1-3)[Fuc(a1-3)[Gal(b1-4)]GlcNAc(b1-6)]Gal(b1-4)Glc
# Method in brief: as §1
binder,measurement,setting,value
B1,glycan array binding signal (z-score),[1],1.31
same,glycan array binding signal (z-score),[2],-0.958
same,glycan array binding signal (z-score),[3],0.032
same,glycan array binding signal (z-score),[4],2.83
same,glycan array binding signal (z-score),[5],-0.952
same,glycan array binding signal (z-score),Man(a1-3)[Man(a1-6)]Man,-0.788
same,glycan array binding signal (z-score),[6],-0.98
same,glycan array binding signal (z-score),[7],-0.067
same,glycan array binding signal (z-score),[8],0.056
same,glycan array binding signal (z-score),[9],0.386
same,glycan array binding signal (z-score),[10],1.1
same,glycan array binding signal (z-score),Man(a1-6)Man,-0.681
same,glycan array binding signal (z-score),Man(b1-4)GlcNAc,1.55
same,glycan array binding signal (z-score),MurNAc(b1-4)GlcNAc,-0.58
same,glycan array binding signal (z-score),Neu5Ac(a2-3)Gal,-0.674
same,glycan array binding signal (z-score),[11],-0.87
same,glycan array binding signal (z-score),[12],0.361
same,glycan array binding signal (z-score),[13],-1.15
same,glycan array binding signal (z-score),[14],-0.286
same,glycan array binding signal (z-score),[15],-1.6
same,glycan array binding signal (z-score),[16],2.32
same,glycan array binding signal (z-score),[17],0.423
same,glycan array binding signal (z-score),[18],-1.36
same,glycan array binding signal (z-score),[19],1.07
same,glycan array binding signal (z-score),[20],0.151
same,glycan array binding signal (z-score),[21],1.46
same,glycan array binding signal (z-score),[22],-0.66
same,glycan array binding signal (z-score),[23],1.79
same,glycan array binding signal (z-score),[24],-0.63
same,glycan array binding signal (z-score),[25],-1.15
same,glycan array binding signal (z-score),[26],0.618
same,glycan array binding signal (z-score),[27],-1.34
same,glycan array binding signal (z-score),[28],-0.396
same,glycan array binding signal (z-score),[29],-0.745
same,glycan array binding signal (z-score),[30],-1.65
same,glycan array binding signal (z-score),[31],-0.134
same,glycan array binding signal (z-score),[32],-0.238

# Not a retest: an excerpt of the list.
binder,measurement,setting,value
B1,glycan array binding signal (z-score),[1],1.31
same,glycan array binding signal (z-score),[2],-0.958
